# Reference: PubChem BioAssay AID624297 (National Center for Advancing Translational Sciences (NCATS), 2012)
# Out of some 340,000 compounds screened, about 6,200 (1.8%) were called active. Inconclusive results, whose numbers are uncertain, are shown with a selection of clear calls. The call rests on the fitted dose curve; in most records, active means well fitted activation curve with a large enough effect; inconclusive means small, poorly fitted or top-dose-only effect; inactive means no such curve, though single readings can be large or run the other way. Where the call is inconclusive, the potency comes from a doubtful curve fit.
# Assay: A quantitative high throughput screen for small molecules that induce DNA re-replication in SW480 colon adenocarcinoma cells. Further: nearly all actives have a fitted effect of over 55% in size. On re-replication activation: % of control where 0% means no effect.
# Details: Hoechst DNA content imaging, 48 h; re-replication activation: at 46.1 µM (top of the series) unless noted
# How it was run: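 Cells (250 per well) received 23 nL compound or DMSO by pin tool and were kept 48 hr at 37 C, 5% CO2. Nuclei were then stained with Hoechst for 40 min and scanned for DNA content.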
# Potency means the concentration at half of the fitted maximal effect.
Structure (SMILES),Potency,re-replication activation
N=c1n(Cc2ccc(Cl)cc2)c2ccccc2n1CC(O)c1ccco1 (stereo not given),"inconclusive: 6.51 µM [activator, partial curve, poor fit]",–
Cc1ccc(/C=N/NC(=S)N2CCOCC2)cc1,"inconclusive: 0.731 µM [activator, full curve, poor fit]",–
COC(=O)C1=CN(Cc2ccc(F)cc2)C=C(C(=O)OC)C1c1ccc(O)c(OC)c1,"inconclusive: 29.1 µM [activator, partial curve, poor fit]",–
O=C(CCCN1C(=O)c2ccccc2C1=O)Nc1c2c(nc3c1CCC3)CCC2,–,inactive: -0.621%
COc1ccc(C(C[N+](=O)[O-])c2c(-c3ccccc3)cc3ccccn23)cc1 (stereo not given),"inconclusive: 20.6 µM [activator, single point]",–
CC(=O)Nc1ccc(Nc2cc(C(C)C)nc3c(-c4ccccc4)c(C)nn23)cc1,"inconclusive: 7.31 µM [activator, partial curve, poor fit]",–
CCc1ccc(C2C(C#N)=C(N)Oc3cc(N)ccc32)cc1 (stereo not given),"inconclusive: 20.6 µM [activator, single point]",–
O=C(CNC(=O)c1ccccc1Cl)N/N=C/c1ccc([N+](=O)[O-])s1,"inconclusive: 6.51 µM [activator, single point]",–
O=C(N/N=C/c1c(O)n(Cc2ccccc2)c(=O)c2ccccc12)c1cccnc1,–,inactive: 22.6%
COC(CNC(=O)c1c[nH]c2ccc(S(=O)(=O)N3CCC4(CC3)OCCO4)cc2c1=O)OC,–,inconclusive: -296% [activator]
CC(C)(C)NS(=O)(=O)c1ccc(NC(=O)C(Sc2ccccc2)c2ccccc2)cc1 (stereo not given),"inconclusive: 13 µM [activator, partial curve]",–
COc1ccc(NC(=O)COC(=O)CNS(=O)(=O)c2ccccc2)cc1OC,–,inactive: 4.51%
Cc1[nH]n(-c2ccccc2)c(=O)c1CCO,–,inactive: -14.7%
COc1ccc(NC(=O)c2sccc2OS(=O)(=O)N(C)C)cc1,"inconclusive: 7.31 µM [activator, partial curve, poor fit]",–
Cc1c(N(C)S(=O)(=O)c2ccc(Cl)c(C(=O)N3CCC(C(N)=O)CC3)c2)c(=O)n(-c2ccccc2)n1C,active: 6.51 µM,–
O=C(C1=C(O)C(=O)N(CC2CCCO2)C1c1ccc(Cl)cc1Cl)c1ccco1 (stereo not given),–,inactive: 13.1%
O=C(CSc1ccc(-c2ccccn2)nn1)Nc1ccccc1,"inconclusive: 29.1 µM [activator, single point]",–
Cc1oc(-c2cccc(Cl)c2)nc1CN(C)C1CCOC1 (stereo not given),–,inactive: 3.32%
O=C(COc1ccc2c(c1)oc(=O)c1ccccc12)NCC1CCC(C(=O)O)CC1 (stereo not given),–,inactive: -1.57%
COC(=O)c1cc2sc(Cl)cc2n1CC(=O)Nc1cccc(SC)c1,"inconclusive: 9.2 µM [activator, partial curve, poor fit]",–
O=C(CN1CCOCCOCCOCCOCC1)Nc1ccccc1,–,inconclusive: 37.8% [activator]
CCC1=C/C(=C/c2sc3ccccc3[n+]2CC)CC(C)(C)C1,"inconclusive: 23.1 µM [activator, single point]",–
O=C(Cn1cnc([N+](=O)[O-])n1)N/N=C/c1cccc(Cl)c1,"inconclusive: 18.4 µM [activator, partial curve, poor fit]",–

Structure (SMILES),Potency,re-replication activation
Cc1noc(/C=C/c2ccco2)c1S(=O)(=O)N1CCC(C(=O)N(C)Cc2ccccc2)CC1,–,inactive: 7.74%
Cc1ccc2cccc(NC(=S)NC(=O)c3ccn(C)n3)c2n1,"inconclusive: 25.9 µM [activator, single point]",–
Cc1ccc(SCc2nc3ccccc3n2CC(=O)Nc2c(C)cccc2C)cc1,"inconclusive: 25.9 µM [activator, single point]",–
O=C1CSC(=NC2CCCCC2)N1,–,inactive: 2.34%
S=C(Nc1cccc2ccccc12)NN1CCOCC1,–,inactive: 0.654%
CN1/C(=C\C(=O)c2cncc(Br)c2)C(C)(C)c2ccccc21,"inconclusive: 32.6 µM [activator, partial curve, poor fit]",–
CCOc1ccc(/C=C2\SC(=S)N(CC(=O)Nc3ccccn3)C2=O)cc1,"inconclusive: 23.1 µM [activator, single point]",–
CCn1c(NC(=O)C2CCCCC2)nc2ccccc21,"inconclusive: 18.4 µM [activator, partial curve, poor fit]",–
CC1(C)Cc2noc(N)c2C(C)(C)N1OC(=O)c1scc2c1OCCO2,"inconclusive: 18.4 µM [activator, partial curve, poor fit]",–
COc1ccc(OC)c(NC(=O)CSc2nncc3ccccc23)c1,"inconclusive: 20.6 µM [activator, single point]",–
Cc1ccc(SCCC(=O)Nc2ccccc2C(=O)NC(C)C)cc1,"inconclusive: 14.6 µM [activator, partial curve, poor fit]",–
CCc1ccc(NC(=O)CSc2nc(=O)n(CCCN3CCOCC3)c3c2CCC3)cc1,"inconclusive: 0.0651 µM [activator, full curve, poor fit]",–
COC(OC)c1ccc(C#N)c(SCc2ccc(C)cc2)n1,–,inconclusive: 26% [activator]
Cc1ccc(S(=O)(=O)N2CCN(C(=O)Cn3c(=O)cnc4ccccc43)CC2)cc1,–,inactive: 1.33%
COc1ccc(OC)c(NC(=O)COC(=O)COc2c(Cl)cc(Cl)c3ccc(C)nc23)c1,"inconclusive: 16.4 µM [activator, single point]",–
CC(=O)Nc1ccc(NC(=O)CS(=O)(=O)Cc2ccccc2)cc1,–,inactive: 1.29%
O=C(Nc1ccc(Cl)cc1)c1ccc(S(=O)(=O)N2CCOCC2)cc1,–,inactive: -12.1%
CCOc1ccc(CCN2C(=S)N([C@@H](CC(C)C)CN3CCCC3CN3C(=S)NC[C@@H]3Cc3ccc(O)cc3)C[C@@H]2Cc2ccc(O)cc2)cc1 (stereo not given in full),–,inactive: -3.48%
COc1cc(Cl)ccc1OCc1cc(C(=O)N(C)Cc2cccc3cnccc23)no1,–,inactive: -2.23%
CC1CCCC(C)N1C(=O)COC(=O)c1ccc[nH]c1=O (stereo not given),–,inactive: -12.1%
COc1cc(/C=C(/C(=O)c2cccs2)c2nc3ccccc3[nH]2)ccc1O,active: 7.31 µM,–
Cc1ccc(-c2cc(C(=O)N/N=C/c3c(C)nn(C)c3C)c3ccccc3n2)cc1C,–,inactive: 7.37%

# 3 of the compounds above, with bars between the fields.
Structure (SMILES) | Potency | re-replication activation
COc1ccc(NC(=O)c2sccc2OS(=O)(=O)N(C)C)cc1 | inconclusive: 7.31 µM [activator, partial curve, poor fit] | –
Cc1c(N(C)S(=O)(=O)c2ccc(Cl)c(C(=O)N3CCC(C(N)=O)CC3)c2)c(=O)n(-c2ccccc2)n1C | active: 6.51 µM | –
O=C(C1=C(O)C(=O)N(CC2CCCO2)C1c1ccc(Cl)cc1Cl)c1ccco1 (stereo not given) | – | inactive: 13.1%
